# Assay results published in article PMC3388087 (PLoS ONE, 2012).
# No constants are given. Whether binding was seen depends on the method and setting.
# Target: human DGCR8 NC9 (residues 499-751) (human) (UniProt Q8WYQ5)
# Assay: SEC; size exclusion chromatography, last step of the purification; SEC buffer 400 mM NaCl, 20 mM Tris pH 8.0, 1 mM DTT; elution volumes compared (bat star HBD 13.8 mL; human HBD dimer; human NC9 monomer 2.6 mL later); both purified
binder,measurement,value
"human DGCR8 NC9 (residues 499-751) (domain or fragment, UniProt Q8WYQ5 499-751) TKKEFVINPNGKSEVCILHEYMQRVLKVRPVYNFFECENPSEPFGASVTIDGVTYGSGTASSKKLAKNKAARATLEILIPDFVKQTSEEKPKDSEELEYFNHISIEDSRVYELTSKAGLLSPYQILHECLKRNHGMGDTSIKFEVVPGKNQKSEYVMACGKHTVRGWCKNKRVGKQLASQKILQLLHPHVKNWGSLLRMYGRESSKMVKQETSDKSVIELQQYAKKNKPNLHILSKLQEEMKRLAEEREETRK",binding,no binding
